According to patent publication CN111057148A:
Changes are numbered by the printed parent chain. No constants are given. Whether binding was seen depends on the method and setting. Some results given as binding are weak or reduced against the parent protein; the word gives no strength.

Chains of the proteins cited; added tags and fusions are not shown. Residues count along the entry.
UniProt P02769, residues 25-607: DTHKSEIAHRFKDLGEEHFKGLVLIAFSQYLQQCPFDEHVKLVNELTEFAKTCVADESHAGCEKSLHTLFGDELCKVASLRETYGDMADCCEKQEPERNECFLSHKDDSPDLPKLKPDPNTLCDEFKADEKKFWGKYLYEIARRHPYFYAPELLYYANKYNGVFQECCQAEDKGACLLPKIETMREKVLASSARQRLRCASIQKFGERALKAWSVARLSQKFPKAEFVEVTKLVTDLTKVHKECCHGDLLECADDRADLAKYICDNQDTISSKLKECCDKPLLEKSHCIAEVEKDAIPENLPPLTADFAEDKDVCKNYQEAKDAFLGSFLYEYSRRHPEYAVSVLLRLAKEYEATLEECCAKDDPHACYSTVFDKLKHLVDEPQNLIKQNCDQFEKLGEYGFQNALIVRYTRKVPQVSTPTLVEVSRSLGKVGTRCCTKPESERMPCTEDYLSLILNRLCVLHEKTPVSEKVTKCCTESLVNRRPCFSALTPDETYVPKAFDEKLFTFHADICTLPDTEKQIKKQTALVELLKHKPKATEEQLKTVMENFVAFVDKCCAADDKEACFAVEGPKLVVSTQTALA

B1: 单域抗体1A5 (VHH, not shown: small tags and cut ends)
VHH: QVQLQESGGGSVQAGGSLRLACAASGYTYSSSYMGWFRQAPGKEREGVAVIYTGGGRTYYADSVKGRFTVSRDNAKNTVYLQMNSLKPEDTAMYYCAADGSRRNWFSPLDPRKYNYWGQGTQVTVSS
B2: 单域抗体1B2 (VHH, not shown: small tags and cut ends)
VHH: QVQLQESGGGTVQAGGSLTLSCAASGYTYNYMGWFRQAPGKEREGVAAIATSSGRAYYADSVKGRFTISQDNGKNTLHLQMNSLKPEDTAMYYCAAGSHYSGYSLSPGRYKYWGQGTQVTVSS
B3: 单域抗体1C2 (VHH, not shown: small tags and cut ends)
VHH: B2 VHH with A50H, S52G, A56T, A59I, G73A, L77T, H78N, N82T, S101A, L105M
B4: 单域抗体2C11 (VHH, not shown: small tags and cut ends)
VHH: B2 VHH with A48V, I49M, A50H, S52G, A59V, Q70R, G73A, L77V, L105M
B5: 单域抗体2C6 (VHH, not shown: small tags and cut ends)
VHH: QVQLQESGGGSVQAGGSLRLSCAASGSADRRNYVAWFRQAPGKEREGVAALGIVSGFTHYADSVKGRFTISQDNARNTVYLQMNRMIPEDTAMYYCAADSRTRVLISWFLNPDKYNYWGRGTQVTVSS
B6: 单域抗体2D10 (VHH, not shown: small tags and cut ends)
VHH: QVQLQESGGGSVQAGGSLRLSCAASEYTSSVTFMGWVRQAPGKEREGVATIYTVTGRTYYADSVKGRFTISQDKAKNTVYLQMDSLKPEDTAMYYCAATPFSLSKTTRLAKFGSLNENEYDLWGQGTQVTVSS
B7: 单域抗体2D11 (VHH, not shown: small tags and cut ends)
VHH: B6 VHH with V54P, D84N
B8: 单域抗体2D6 (VHH, not shown: small tags and cut ends)
VHH: QVQLQESGGGSVQTGGSLRLSCAASGNSDGAWSMGWFRQAPGKEREGVAALYVFTGITYYAGSVKGRFTISQDKAKNTVYLQMNSLKPEDTAMYYCAAGTAFPTLNRNKYNYWGQGTQVTVSS
B9: 单域抗体1C9 (VHH, not shown: small tags and cut ends)
VHH: QVQLQESGGGSVRAGGSLRLSCAASGYTSSSYCMGWFRQAPGKEREGVAAIYTDTGGGSTYYADSVKGRFTISQGNAKNTLYLQMNSLKPEDTAMYYCAAVERRGGSCYTRYKYAAFAYWGQGTQVTVSS
B10: 单域抗体2A11 (VHH, not shown: small tags and cut ends)
VHH: QVQLQESGGGSVQAGGSLRLSCTASGFTLDDSDLGWYRQAPGNECELVSIIRRDGSPYHTYYPDSVKGRFTISQDNAKNTLYLQMNSLKPEDTAVYYCAADPSRYYSDYGAPGCGFNYWGQGTQVTVSS
B11: 单域抗体2C10 (VHH, not shown: small tags and cut ends)
VHH: QVQLQESGGGSVQAGGSLRLSCVASGYTFSSDCMGWFRQAPGKKREGVAAIYTSGSSTYYADSVKGRFTISRDNAKNTVYLEMNSLKPEDTAIYYCAARRSSGGYCYIGSDFQISLYNNWGQGTQVTVSS
B12: 单域抗体2C9 (VHH, not shown: small tags and cut ends)
VHH: B1 VHH with G54A, P108Q
B13: 单域抗体1A10 (VHH, not shown: small tags and cut ends)
VHH: B1 VHH with S11L, A21S, G54T, V70I, F106Y, P108Q
B14: 单域抗体2B4 (VHH, not shown: small tags and cut ends)
VHH: B1 VHH with S11L, A14P, A21S, G54F, V70I, F106Y, P108Q, N115L
B15: 单域抗体2A7 (VHH, not shown: small tags and cut ends)
VHH: B1 VHH with A21S, G54T, V70I, F106Y, P108Q
B16: 单域抗体2B9 (VHH, not shown: small tags and cut ends)
VHH: B1 VHH with S11L, A14P, G54S, F106Y
B17: 单域抗体2D2 (VHH, not shown: small tags and cut ends)
VHH: B1 VHH with G54S, F106Y
B18: 单域抗体2A4 (VHH, not shown: small tags and cut ends)
VHH: QVQLQESGGGSVQAGGSLRLSCAASSYTGSVNYMAWFRQAPGKEREGVAAIYSGGGSTYYADSVKGRFTISRDNAKNTVYLQMNSLIPEDTATYYCASDQSRRSWFSPLVPGKYSLWGQGTQVTVSS
B19: 单域抗体1A2 (VHH, not shown: small tags and cut ends)
VHH: QVQLQESGGGSVQAGGSLRLSCTASGFTSDDSDMGWYRQAPGNECELVSVVRSDGTTYYPPSVRGRFTISQDNAKNTVSLQMNSLKPEDTAVYYCAADPSPYYRDYGAPGCGFNYWGQGTQVTVSS
B20: 单域抗体1C1 (VHH, not shown: small tags and cut ends)
VHH: QVQLQESGGGSVQAGGSLRLSCTASGFSLDDRDMGWYRQAPGNECELVSVIRSDGRTYYPDSVKGRFTISQDNAKRTLYLQMNSLKAEDTAVYYCAADPSRRYSDYGAPGCGFNYWGQGTQVTVSS
B21: 单域抗体1B7 (VHH, not shown: small tags and cut ends)
VHH: B1 VHH with G16E, A21S, V70I, K76E, Q82R, F106Y
B22: 单域抗体1C3 (VHH, not shown: small tags and cut ends)
VHH: B20 VHH with R56S, R76N, A87P, R102Y
B23: 单域抗体2C5 (VHH, not shown: small tags and cut ends)
VHH: B20 VHH with R56S, R76N, A87P, R102Y, N114H
B24: 单域抗体2D5 (VHH, not shown: small tags and cut ends)
VHH: QVQLQESGGGSVQAGGSLRLSCTASGFTPDGSDMGWYRQAPGNECELVSVIRSGGSTYYTDSVKGRFTISRDNAKNTLYLQMNSLKPEDTAVYYCAADPSRYYSDYGAPGCGFHYWGQGTQVTVSS
B25: 单域抗体1C10 (VHH, not shown: small tags and cut ends)
VHH: QVQLQESGGGSVQAGGSLRLSCAVSGLTYSSNCMGWFRQAPGKEREGVAAIYNGGNTYYADSVKGRFTISRDNAKNTVYLEMNSLKPEDTAIYYCAARRSSGGYCYIGSDFQISLFNNWGQGTQVTVSS
B26: 单域抗体1B3 (VHH, not shown: small tags and cut ends)
VHH: B2 VHH with A50S, A59V, G73A, L77T, H78Y, L105I
B27: 单域抗体2B3 (VHH, not shown: small tags and cut ends)
VHH: B5 VHH with A14T, A28T, V34M, L51I, I53T, V54I, L105I, S107G
B28: 单域抗体1D11 (VHH, not shown: small tags and cut ends)
VHH: QVQLQESGGGSVQAGGSLRLSCTASGYTHRMAWFRQAPGKEREGVAAIYTDVGHTYYAASVKGRFTIAQDNANNTAYLQMNSLKPEDTAIYYCAAARGGYSWRKVNEYNYWGQGTQVTVSS
B29: 单域抗体2B1 (VHH, not shown: small tags and cut ends)
VHH: QVQLQESGGGSVQAGGSLRLSCAVSGYTLSNKWMGWFRQAPGKEREGVAAIYTGGGRTDYADSVKGRFTISQDNAQNTLYLQMNSLKPEDTAMYYCAAARGYGQNWYRTLRTEAYDIWGQGTQVTVSS
B30: 单域抗体1D3 (VHH, not shown: small tags and cut ends)
VHH: B6 VHH with G35A, T58S, D84N, T106A
B31: 单域抗体1D8 (VHH, not shown: small tags and cut ends)
VHH: B1 VHH with A21S, G54T, V70I, F106Y
B32: 单域抗体1B4 (VHH, not shown: small tags and cut ends)
VHH: QVQLQESGGGSVQAGGSLRLSCVASRYMGSTYYMAWFRQAPGKEREGVAAIYIASGNSGSTYYADSVKGRFTISRDNAKNTVYLQMNSLIPEDTASYYCASDLSRRNWLPPLVPGKYSLWGQGTQVTVSS
B33: 单域抗体1D10 (VHH, not shown: small tags and cut ends)
VHH: B18 VHH with S26G, S53G, G54Y, T93S, F106L
B34: 单域抗体2D8 (VHH, not shown: small tags and cut ends)
VHH: B18 VHH with A23E, S26G, A40P, S53G, S63A, T93S, S107P

Target: 牛血清白蛋白(BSA) (牛 (bovine)) (UniProt P02769)
Assay: ELISA, BSA coated 100 ng/100 µL, E. coli-expressed VHH, HRP anti-HA detection, OD450

binding, binds:
B1
B2
B3
B4
B5
B6
B7
B8
B9
B10
B11
B12
B13
B14
B15
B16
B17
B18
B19
B20
B21
B22
B23
B24
B25
B26
B27
B28
B29
B30
B31
B32
B33
B34

Target: 生物素标记的BSA蛋白(BSA-Biotin) (牛 (bovine)) (UniProt P02769)
Assay: ELISA of crude periplasmic extract on BSA-Biotin captured by neutravidin; positive = OD450 more than 5x control well

binding, binds:
B1
B2
B3
B4
B5
B6
B7
B8
B9
B10
B11
B12
B13
B14
B15
B16
B17
B18
B19
B20
B21
B22
B23
B24
B25
B26
B27
B28
B29
B30
B31
B32
B33
B34
